Data: publication PMC6733597
Results are given in words; binding and its absence hold for the method and conditions named. Sequences can lack the tags named with a protein.

Tests used:
[1] = biological target: T1, endogenous unlabelled Spd-2 (Drosophila melanogaster (endogenous in embryos)) (UniProt Q9VV79); assay: fluorescence correlation spectroscopy (FCS), count-rate per molecule; living embryos, cytoplasm, nuclear cycles 11-14 at the beginning of S-phase, 25 C; CPM of Spd-2-GFP compared with monomeric GFP, and between embryos with only Spd-2-GFP and embryos with one copy of Spd-2-GFP and one of the endogenous gene
T1 sequence: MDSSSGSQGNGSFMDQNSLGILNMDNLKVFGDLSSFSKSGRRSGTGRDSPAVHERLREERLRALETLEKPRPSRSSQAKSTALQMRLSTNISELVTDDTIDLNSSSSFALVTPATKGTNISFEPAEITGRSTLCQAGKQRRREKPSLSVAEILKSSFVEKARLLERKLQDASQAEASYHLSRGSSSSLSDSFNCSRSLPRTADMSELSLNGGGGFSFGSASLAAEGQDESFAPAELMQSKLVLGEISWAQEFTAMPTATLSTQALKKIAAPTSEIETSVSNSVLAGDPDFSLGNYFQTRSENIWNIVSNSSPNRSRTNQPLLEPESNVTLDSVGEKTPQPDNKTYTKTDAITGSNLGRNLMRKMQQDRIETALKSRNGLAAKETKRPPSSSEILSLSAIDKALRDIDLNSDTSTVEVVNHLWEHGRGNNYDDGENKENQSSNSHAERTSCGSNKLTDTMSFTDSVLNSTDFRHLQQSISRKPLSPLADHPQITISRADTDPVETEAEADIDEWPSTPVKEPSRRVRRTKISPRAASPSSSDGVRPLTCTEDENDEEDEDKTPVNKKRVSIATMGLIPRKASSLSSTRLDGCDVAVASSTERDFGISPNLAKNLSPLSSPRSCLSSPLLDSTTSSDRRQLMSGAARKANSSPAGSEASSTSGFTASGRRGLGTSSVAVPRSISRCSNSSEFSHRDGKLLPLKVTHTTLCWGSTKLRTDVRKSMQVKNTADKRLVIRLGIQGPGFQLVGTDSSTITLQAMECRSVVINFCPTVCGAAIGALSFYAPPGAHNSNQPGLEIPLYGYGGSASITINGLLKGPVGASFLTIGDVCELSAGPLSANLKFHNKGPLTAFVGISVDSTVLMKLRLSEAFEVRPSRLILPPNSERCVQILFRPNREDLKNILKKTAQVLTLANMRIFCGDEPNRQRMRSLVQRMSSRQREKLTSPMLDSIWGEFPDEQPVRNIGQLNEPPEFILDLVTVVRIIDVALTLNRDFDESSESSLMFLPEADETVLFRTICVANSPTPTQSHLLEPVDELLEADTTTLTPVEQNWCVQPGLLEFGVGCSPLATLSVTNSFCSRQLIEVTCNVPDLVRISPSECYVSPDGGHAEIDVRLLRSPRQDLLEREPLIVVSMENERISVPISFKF

[2] = biological target: Spd-2-GFP (Drosophila melanogaster) (UniProt Q9VV79); assay: as above

binding [1]: no binding
binding [2]: no binding
B1: Spd-2-GFP (protein, UniProt Q9VV79 1-1146)
chain: T1 sequence
